Measurements reported in paper PMC12263834, “Structural basis of Fanconi anemia pathway activation by FANCM”.
No constants are given. Whether binding was seen depends on the method and setting. For some of these results: In cells and extracts the contact can be indirect. Some binding calls cover weakened binding; strength is not graded here. For some of these results: Where a sequence is shown, tags or fusion partners need not be part of it. Blank lines part the entries; values can stand above or below the molecule they belong to.

Protein sequences, listed by entry. Tags and fused reporters are not part of them.
UniProt Q8N2Z9: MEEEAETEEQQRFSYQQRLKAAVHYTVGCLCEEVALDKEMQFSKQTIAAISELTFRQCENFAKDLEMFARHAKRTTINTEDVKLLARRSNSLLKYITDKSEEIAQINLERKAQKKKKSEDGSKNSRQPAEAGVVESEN

Columns and labels:
[1] = target: T1, MBP-FANCC-FANCE-FANCF complex (UniProt Q00597); assay: pull-down; amylose copurification; MBP-FANCC-E-F alone or with FANCM:FAAP24; both purified
T1 sequence 1: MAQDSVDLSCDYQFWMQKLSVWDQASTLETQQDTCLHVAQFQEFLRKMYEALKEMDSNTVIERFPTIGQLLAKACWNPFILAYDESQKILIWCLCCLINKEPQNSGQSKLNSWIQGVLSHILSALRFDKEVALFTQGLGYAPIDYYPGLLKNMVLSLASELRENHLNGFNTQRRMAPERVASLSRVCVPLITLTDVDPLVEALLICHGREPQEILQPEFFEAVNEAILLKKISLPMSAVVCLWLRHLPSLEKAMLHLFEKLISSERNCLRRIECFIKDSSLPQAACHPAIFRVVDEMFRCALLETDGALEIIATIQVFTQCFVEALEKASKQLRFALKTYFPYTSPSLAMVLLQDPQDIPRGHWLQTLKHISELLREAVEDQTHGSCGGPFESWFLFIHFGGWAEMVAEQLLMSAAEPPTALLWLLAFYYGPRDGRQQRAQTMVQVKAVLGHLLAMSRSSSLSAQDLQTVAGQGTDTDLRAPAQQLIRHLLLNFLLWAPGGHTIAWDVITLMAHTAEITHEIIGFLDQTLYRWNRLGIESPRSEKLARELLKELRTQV
T1 sequence 2: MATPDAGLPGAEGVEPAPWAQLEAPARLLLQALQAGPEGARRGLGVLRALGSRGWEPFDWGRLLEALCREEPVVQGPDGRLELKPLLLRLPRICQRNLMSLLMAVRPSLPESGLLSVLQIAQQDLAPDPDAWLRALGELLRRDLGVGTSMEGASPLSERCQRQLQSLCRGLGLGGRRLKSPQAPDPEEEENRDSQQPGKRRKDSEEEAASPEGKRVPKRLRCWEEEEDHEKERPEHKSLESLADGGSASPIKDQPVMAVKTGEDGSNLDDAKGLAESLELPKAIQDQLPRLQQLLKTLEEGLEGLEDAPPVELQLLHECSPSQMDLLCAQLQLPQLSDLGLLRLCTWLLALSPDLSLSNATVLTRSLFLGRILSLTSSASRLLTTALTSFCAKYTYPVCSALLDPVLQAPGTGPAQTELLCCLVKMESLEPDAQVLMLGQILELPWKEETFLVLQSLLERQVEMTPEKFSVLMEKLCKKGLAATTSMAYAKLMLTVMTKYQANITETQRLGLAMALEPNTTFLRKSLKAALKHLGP
T1 sequence 3: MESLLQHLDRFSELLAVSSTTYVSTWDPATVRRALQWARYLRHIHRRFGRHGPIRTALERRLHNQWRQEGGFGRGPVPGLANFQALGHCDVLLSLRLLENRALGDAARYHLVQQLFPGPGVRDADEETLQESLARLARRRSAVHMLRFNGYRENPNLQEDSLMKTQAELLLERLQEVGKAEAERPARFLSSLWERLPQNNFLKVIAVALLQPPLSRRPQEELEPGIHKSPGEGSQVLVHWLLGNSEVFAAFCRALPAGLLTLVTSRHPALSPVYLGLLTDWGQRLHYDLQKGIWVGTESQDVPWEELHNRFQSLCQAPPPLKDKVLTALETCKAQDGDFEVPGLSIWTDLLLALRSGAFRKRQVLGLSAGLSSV

[2] = target: FANCM (full-length, as purified in the FANCM anchor complex FANCMc) (human) (UniProt Q8IYD8); assay: co-purification; FANCM complexes purified as in Hodson et al, 2022; subunits shown by Coomassie blue staining and Western blotting
[3] = target: Flag-FANCM-wildtype (expressed in cells) (human) (UniProt Q8IYD8); assay: co-IP; Flag-FANCM precipitated with α-Flag M2 agarose from benzonase-treated lysates (K100 buffer, NaCl raised to 250 mM); Western blots of FANCE and FANCA quantified, n = 3
[4] = target: T2, FANCM-CTD:FAAP24 heterodimer (human) (UniProt Q8IYD8+Q9BTP7); assay: SEC; purified FANCM-CTD:FAAP24; peak at the size of a heterodimer; both purified
[5] = target: T2, FANCM-CTD:FAAP24 heterodimer (human); assay: dynamic light scattering; Zetasizer Nano-S; protein >0.5 mg/ml, 0.22 µm filtered; both purified
[6] = target: T3, FANCM-CTD (FANCM 1799-2048) (human) (UniProt Q8IYD8); assay: crystal structure; FANCM-CTD:FAAP24 mixed with splayed arm DNA (3:1 DNA to protein); 25% PEG3350, 0.1 M di-ammonium monohydrogen phosphate; 2.4 Å; both purified
T3 sequence: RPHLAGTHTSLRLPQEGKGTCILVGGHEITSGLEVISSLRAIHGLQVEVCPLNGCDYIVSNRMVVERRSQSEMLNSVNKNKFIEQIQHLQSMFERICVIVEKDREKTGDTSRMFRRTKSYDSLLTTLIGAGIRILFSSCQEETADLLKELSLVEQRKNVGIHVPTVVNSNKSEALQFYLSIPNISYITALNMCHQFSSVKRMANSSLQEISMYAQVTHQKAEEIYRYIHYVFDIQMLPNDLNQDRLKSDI

[7] = target: T3, FANCM-CTD (FANCM 1799-2048) (human); assay: SEC; purified FANCM-CTD:FAAP24; peak at the size of a heterodimer; both purified
[8] = target: T3, FANCM-CTD (FANCM 1799-2048) (human); assay: dynamic light scattering; Zetasizer Nano-S; protein >0.5 mg/ml, 0.22 µm filtered; both purified

Molecule: FANCM:FAAP24 complex (full-length FANCM with FAAP24, without MHF1/MHF2) (from UniProt Q8IYD8 1-2048; Q9BTP7 1-215)
- binding [1]: binds

Molecule: MHF1 (subunit of the purified FANCM anchor complex) (from UniProt Q8N2Z9 1-138)
- binding [2]: binds

B1: FANCA (FA core complex component, in cells) (protein, UniProt O15360 1-1455)
chain: MSDSWVPNSASGQDPGGRRRAWAELLAGRVKREKYNPERAQKLKESAVRLLRSHQDLNALLLEVEGPLCKKLSLSKVIDCDSSEAYANHSSSFIGSALQDQASRLGVPVGILSAGMVASSVGQICTAPAETSHPVLLTVEQRKKLSSLLEFAQYLLAHSMFSRLSFCQELWKIQSSLLLEAVWHLHVQGIVSLQELLESHPDMHAVGSWLFRNLCCLCEQMEASCQHADVARAMLSDFVQMFVLRGFQKNSDLRRTVEPEKMPQVTVDVLQRMLIFALDALAAGVQEESSTHKIVRCWFGVFSGHTLGSVISTDPLKRFFSHTLTQILTHSPVLKASDAVQMQREWSFARTHPLLTSLYRRLFVMLSAEELVGHLQEVLETQEVHWQRVLSFVSALVVCFPEAQQLLEDWVARLMAQAFESCQLDSMVTAFLVVRQAALEGPSAFLSYADWFKASFGSTRGYHGCSKKALVFLFTFLSELVPFESPRYLQVHILHPPLVPGKYRSLLTDYISLAKTRLADLKVSIENMGLYEDLSSAGDITEPHSQALQDVEKAIMVFEHTGNIPVTVMEASIFRRPYYVSHFLPALLTPRVLPKVPDSRVAFIESLKRADKIPPSLYSTYCQACSAAEEKPEDAALGVRAEPNSAEEPLGQLTAALGELRASMTDPSQRDVISAQVAVISERLRAVLGHNEDDSSVEISKIQLSINTPRLEPREHMAVDLLLTSFCQNLMAASSVAPPERQGPWAALFVRTMCGRVLPAVLTRLCQLLRHQGPSLSAPHVLGLAALAVHLGESRSALPEVDVGPPAPGAGLPVPALFDSLLTCRTRDSLFFCLKFCTAAISYSLCKFSSQSRDTLCSCLSPGLIKKFQFLMFRLFSEARQPLSEEDVASLSWRPLHLPSADWQRAALSLWTHRTFREVLKEEDVHLTYQDWLHLELEIQPEADALSDTERQDFHQWAIHEHFLPESSASGGCDGDLQAACTILVNALMDFHQSSRSYDHSENSDLVFGGRTGNEDIISRLQEMVADLELQQDLIVPLGHTPSQEHFLFEIFRRRLQALTSGWSVAASLQRQRELLMYKRILLRLPSSVLCGSSFQAEQPITARCEQFFHLVNSEMRNFCSHGGALTQDITAHFFRGLLNACLRSRDPSLMVDFILAKCQTKCPLILTSALVWWPSLEPVLLCRWRRHCQSPLPRELQKLQEGRQFASDFLSPEAASPAPNPDWLSAAALHFAIQQVREENIRKQLKKLDCEREELLVFLFFFSLMGLLSSHLTSNSTTDLPKAFHVCAAILECLEKRKISWLALFQLTESDLRLGRLLLRVAPDQHTRLLPFAFYSLLSYFHEDAAIREEAFLHVAVDMYLKLVQLFVAGDTSTVSPPAGRSLELKGQGNPVELITKARLFLLQLIPRCPKKSFSHVAELLADRGDCDPEVSAALQSRQQAAPDADLSQEPHLF
- binding [3]: binds

B3: FANCM-CTD:FAAP24 heterodimer (complex, UniProt Q8IYD8 1799-2048; Q9BTP7 1-215)
chain 1: RPHLAGTHTSLRLPQEGKGTCILVGGHEITSGLEVISSLRAIHGLQVEVCPLNGCDYIVSNRMVVERRSQSEMLNSVNKNKFIEQIQHLQSMFERICVIVEKDREKTGDTSRMFRRTKSYDSLLTTLIGAGIRILFSSCQEETADLLKELSLVEQRKNVGIHVPTVVNSNKSEALQFYLSIPNISYITALNMCHQFSSVKRMANSSLQEISMYAQVTHQKAEEIYRYIHYVFDIQMLPNDLNQDRLKSDI
chain 2: MEKNPPDDTGPVHVPLGHIVANEKWRGSQLAQEMQGKIKLIFEDGLTPDFYLSNRCCILYVTEADLVAGNGYRKRLVRVRNSNNLKGIVVVEKTRMSEQYFPALQKFTVLDLGMVLLPVASQMEASCLVIQLVQEQTKEPSKNPLLGKKRALLLSEPSLLRTVQQIPGVGKVKAPLLLQKFPSIQQLSNASIGELEQVVGQAVAQQIHAFFTQPR
- binding [4]: no binding
- binding [5]: no binding

The next lines start with the values.

- binding [2]: binds
B2: FAAP24 (subunit of the purified FANCM anchor complex) (protein, UniProt Q9BTP7 1-215)
chain: MEKNPPDDTGPVHVPLGHIVANEKWRGSQLAQEMQGKIKLIFEDGLTPDFYLSNRCCILYVTEADLVAGNGYRKRLVRVRNSNNLKGIVVVEKTRMSEQYFPALQKFTVLDLGMVLLPVASQMEASCLVIQLVQEQTKEPSKNPLLGKKRALLLSEPSLLRTVQQIPGVGKVKAPLLLQKFPSIQQLSNASIGELEQVVGQAVAQQIHAFFTQPR

- binding [6]: binds
- binding [7]: binds
- binding [8]: binds
B4: HIS-FAAP24 (co-expressed with FANCM-CTD) (protein, UniProt Q9BTP7 1-215)
chain: MEKNPPDDTGPVHVPLGHIVANEKWRGSQLAQEMQGKIKLIFEDGLTPDFYLSNRCCILYVTEADLVAGNGYRKRLVRVRNSNNLKGIVVVEKTRMSEQYFPALQKFTVLDLGMVLLPVASQMEASCLVIQLVQEQTKEPSKNPLLGKKRALLLSEPSLLRTVQQIPGVGKVKAPLLLQKFPSIQQLSNASIGELEQVVGQAVAQQIHAFFTQPR

- binding [3]: binds
B5: FANCE (FA core complex component, in cells) (protein, UniProt Q9HB96 1-536)
chain: MATPDAGLPGAEGVEPAPWAQLEAPARLLLQALQAGPEGARRGLGVLRALGSRGWEPFDWGRLLEALCREEPVVQGPDGRLELKPLLLRLPRICQRNLMSLLMAVRPSLPESGLLSVLQIAQQDLAPDPDAWLRALGELLRRDLGVGTSMEGASPLSERCQRQLQSLCRGLGLGGRRLKSPQAPDPEEEENRDSQQPGKRRKDSEEEAASPEGKRVPKRLRCWEEEEDHEKERPEHKSLESLADGGSASPIKDQPVMAVKTGEDGSNLDDAKGLAESLELPKAIQDQLPRLQQLLKTLEEGLEGLEDAPPVELQLLHECSPSQMDLLCAQLQLPQLSDLGLLRLCTWLLALSPDLSLSNATVLTRSLFLGRILSLTSSASRLLTTALTSFCAKYTYPVCSALLDPVLQAPGTGPAQTELLCCLVKMESLEPDAQVLMLGQILELPWKEETFLVLQSLLERQVEMTPEKFSVLMEKLCKKGLAATTSMAYAKLMLTVMTKYQANITETQRLGLAMALEPNTTFLRKSLKAALKHLGP
